These results are taken from the supplement of paper PMC8326762, “A Small Molecule Inhibitor of Pex3–Pex19 Interaction Disrupts Glycosome Biogenesis and Causes Lethality in Trypanosoma brucei” (Frontiers in Cell and Developmental Biology, 2021).

For assay [1], the system named is Saccharomyces cerevisiae HF7c pdr5Δ. As to the kind of experiment: general growth inhibition of yeast HF7c pdr5Δ in -Leu -Trp medium, relative to DMSO; higher = stronger general growth inhibition. The following applies: 100 µM; 24 h.
The subject of assay [2] is human PEX3-PEX19 interaction (yeast two-hybrid). As to the kind of experiment: growth inhibition of yeast two-hybrid strain reporting HsPex3-HsPex19 interaction, relative to DMSO; higher = stronger inhibition of human Pex3-Pex19 interaction / growth. The following applies: 100 µM; 24 h; 3-aminotriazole 10 mM.
Assay [3] deals with T. brucei Pex3-Pex19 interaction (yeast two-hybrid). Nature of the assay: growth inhibition of yeast two-hybrid strain reporting TbPex3-TbPex19 interaction, relative to DMSO; higher = stronger inhibition of T. brucei Pex3-Pex19 interaction / growth. The note with it: 100 µM; 24 h.

Structures are written as SMILES. Structures can show the parent of a compound that is named as a salt. This is one part of the list. This is a noisy data set.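 Optical density at 600 nm measured yeast growth. Because the two-hybrid strains grew without histidine, growth required Pex3–Pex19 binding. Trypanosome selectivity meant a compound inhibited the trypanosome-pair strain's growth by more than 65% but the human-pair strain's by less than 65%.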

`CC[N+](CC)(CC)CC` [Tetraethylammonium chloride] displayed a general growth inhibition in assay [1] of 52.8%. Further, the growth inhibition is 48.7% in assay [2] and 59.8% in assay [3].
On the same counts, the results for `C[C@@H](CN1CCC(Cc2ccccc2)CC1)[C@@H](O)c1ccc(O)cc1` [Ro 25-6981 hydrochloride] are 48.8%, 46.8% and 68.4%.
In the same order, the values of `COc1ccccc1N1CCN(CCCCN2C(=O)c3ccccc3C2=O)CC1` [NAN-190 hydrobromide] are 5.15%, 9.85% and 35.3%.
The compound `CCNC(=O)[C@H]1O[C@@H](n2cnc3c(N)nc(NCCc4ccc(CCC(=O)O)cc4)nc32)[C@H](O)[C@@H]1O` had a general growth inhibition in assay [1] of 14.9%. The growth inhibition was found to be 13.5% in assay [2] and 31.7% in assay [3].
On the same counts, the results for `C[C@@H]1O[C@@H]1P(=O)(O)O` [Phosphomycin disodium] are 15.8%, 14.4% and 36.5%.
On the same counts, the results for `C[C@]12CCC(=O)C=C1CC[C@@H]1[C@@H]2CC[C@@]2(C)[C@H]1CC[C@]2(O)C(=O)CO` [Cortexolone] are 44.2%, 38.8% and 46.5%.
As for `CN[C@H]1CC[C@@H](c2ccc(Cl)c(Cl)c2)c2ccccc21` [Sertraline hydrochloride], the general growth inhibition in assay [1] was 38.5%. Also, the results for the growth inhibition in assay [2] and in assay [3] were 33.4% and 58.4%, respectively.
In the same order, the values of `COc1ccc(CN(CCN(C)C)c2ccccn2)cc1` [Pyrilamine maleate] are 32%, 40.2% and 58.1%.
In the same order, the values of `O=C(O)C1CCCNC1` (racemic) [(±)-Nipecotic acid] are 40.6%, 39.9% and 59.6%.
In the same order, the values of `O=C(O)c1ccccc1Nc1ccccc1` [N-Phenylanthranilic acid] are 37.4%, 13.6% and 37%.
For the compound `COc1nc(C)nc(Cl)c1NC1=NCCN1` [Moxonidine hydrochloride], the general growth inhibition in assay [1] amounted to 53.4%. The growth inhibition was 51.2% in assay [2] and 69.6% in assay [3].
